Laboratory results as given in the supplement of paper PMC11732987, “Enantioselective OTUD7B fragment discovery through chemoproteomics screening and high-throughput optimisation” (Communications Chemistry, 2025).
The list shows a part of the results. The data scatter; read single values as rough.

The chains behind the UniProt entries cited, without tags or fusion partners. Where a name states a change or a piece, a line headed by the entry shows the natural chain unless it says otherwise. Residues count along the entry.
UniProt Q8IWR0: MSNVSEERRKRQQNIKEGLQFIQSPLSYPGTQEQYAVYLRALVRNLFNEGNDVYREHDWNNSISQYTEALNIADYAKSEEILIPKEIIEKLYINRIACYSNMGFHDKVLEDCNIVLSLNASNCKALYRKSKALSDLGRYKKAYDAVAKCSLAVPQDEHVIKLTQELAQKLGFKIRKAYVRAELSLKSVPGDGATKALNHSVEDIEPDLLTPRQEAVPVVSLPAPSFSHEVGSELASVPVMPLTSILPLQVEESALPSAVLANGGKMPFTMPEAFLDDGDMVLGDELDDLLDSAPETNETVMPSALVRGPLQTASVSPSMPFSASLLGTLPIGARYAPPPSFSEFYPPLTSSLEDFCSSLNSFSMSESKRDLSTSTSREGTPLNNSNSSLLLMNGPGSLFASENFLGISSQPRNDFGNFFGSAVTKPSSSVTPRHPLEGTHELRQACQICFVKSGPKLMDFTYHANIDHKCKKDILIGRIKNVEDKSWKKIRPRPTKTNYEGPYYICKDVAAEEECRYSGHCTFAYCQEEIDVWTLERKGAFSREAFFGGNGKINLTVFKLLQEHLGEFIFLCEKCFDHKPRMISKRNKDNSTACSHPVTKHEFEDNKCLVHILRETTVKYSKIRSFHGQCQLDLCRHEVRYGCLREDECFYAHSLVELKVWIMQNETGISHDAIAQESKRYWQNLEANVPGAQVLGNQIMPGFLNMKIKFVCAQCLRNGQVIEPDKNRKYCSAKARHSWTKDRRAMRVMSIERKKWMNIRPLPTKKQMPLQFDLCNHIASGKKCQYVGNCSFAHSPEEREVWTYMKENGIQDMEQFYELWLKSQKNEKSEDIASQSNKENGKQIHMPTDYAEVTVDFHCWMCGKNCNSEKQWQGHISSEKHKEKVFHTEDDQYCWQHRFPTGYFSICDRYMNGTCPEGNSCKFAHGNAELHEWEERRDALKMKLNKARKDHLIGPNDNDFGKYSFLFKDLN
UniProt Q8N1G0: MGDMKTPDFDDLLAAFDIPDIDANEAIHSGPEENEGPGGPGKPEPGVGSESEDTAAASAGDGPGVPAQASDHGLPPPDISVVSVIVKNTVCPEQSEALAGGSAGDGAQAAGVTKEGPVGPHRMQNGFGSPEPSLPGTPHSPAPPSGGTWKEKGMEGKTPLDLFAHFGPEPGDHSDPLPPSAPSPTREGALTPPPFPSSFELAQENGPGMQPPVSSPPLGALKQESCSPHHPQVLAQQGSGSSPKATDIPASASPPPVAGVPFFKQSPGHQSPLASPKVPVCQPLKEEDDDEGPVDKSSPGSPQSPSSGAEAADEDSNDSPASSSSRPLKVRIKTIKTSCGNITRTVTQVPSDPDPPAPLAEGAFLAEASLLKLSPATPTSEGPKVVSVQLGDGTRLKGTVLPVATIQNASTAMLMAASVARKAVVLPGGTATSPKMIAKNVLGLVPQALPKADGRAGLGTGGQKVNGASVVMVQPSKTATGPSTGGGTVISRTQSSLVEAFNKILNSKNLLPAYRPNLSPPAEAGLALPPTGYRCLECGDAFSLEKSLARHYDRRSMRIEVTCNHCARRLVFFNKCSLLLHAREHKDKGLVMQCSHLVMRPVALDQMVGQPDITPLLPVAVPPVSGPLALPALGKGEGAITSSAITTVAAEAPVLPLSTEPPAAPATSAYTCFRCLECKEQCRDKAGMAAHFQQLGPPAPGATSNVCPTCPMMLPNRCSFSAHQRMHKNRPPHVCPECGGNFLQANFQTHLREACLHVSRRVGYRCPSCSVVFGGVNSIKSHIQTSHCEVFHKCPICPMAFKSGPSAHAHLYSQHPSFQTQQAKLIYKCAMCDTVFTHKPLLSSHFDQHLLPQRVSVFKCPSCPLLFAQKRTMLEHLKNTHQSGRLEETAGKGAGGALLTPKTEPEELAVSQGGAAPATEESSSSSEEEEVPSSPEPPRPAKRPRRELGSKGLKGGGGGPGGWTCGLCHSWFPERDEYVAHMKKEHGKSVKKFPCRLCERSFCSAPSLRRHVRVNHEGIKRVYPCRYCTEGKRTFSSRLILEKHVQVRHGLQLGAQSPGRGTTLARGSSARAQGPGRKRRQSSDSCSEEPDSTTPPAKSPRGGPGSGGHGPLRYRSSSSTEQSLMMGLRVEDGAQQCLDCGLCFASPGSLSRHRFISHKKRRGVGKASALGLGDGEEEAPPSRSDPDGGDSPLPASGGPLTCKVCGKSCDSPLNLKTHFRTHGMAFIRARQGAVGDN
UniProt Q8N5A5: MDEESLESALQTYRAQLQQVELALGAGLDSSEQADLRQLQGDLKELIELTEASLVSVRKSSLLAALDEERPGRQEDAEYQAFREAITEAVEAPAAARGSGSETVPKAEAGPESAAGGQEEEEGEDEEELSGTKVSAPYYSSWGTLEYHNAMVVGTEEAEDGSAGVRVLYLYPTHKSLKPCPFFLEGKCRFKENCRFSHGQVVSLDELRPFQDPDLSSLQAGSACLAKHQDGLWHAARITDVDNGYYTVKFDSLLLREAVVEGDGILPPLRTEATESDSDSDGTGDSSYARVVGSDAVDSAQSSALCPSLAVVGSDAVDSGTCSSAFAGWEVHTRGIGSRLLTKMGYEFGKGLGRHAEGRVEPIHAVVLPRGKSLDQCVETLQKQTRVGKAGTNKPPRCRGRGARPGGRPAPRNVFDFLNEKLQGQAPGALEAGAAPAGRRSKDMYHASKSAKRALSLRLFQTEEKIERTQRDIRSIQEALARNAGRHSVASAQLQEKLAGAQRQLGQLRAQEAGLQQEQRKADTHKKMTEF
UniProt Q96H79: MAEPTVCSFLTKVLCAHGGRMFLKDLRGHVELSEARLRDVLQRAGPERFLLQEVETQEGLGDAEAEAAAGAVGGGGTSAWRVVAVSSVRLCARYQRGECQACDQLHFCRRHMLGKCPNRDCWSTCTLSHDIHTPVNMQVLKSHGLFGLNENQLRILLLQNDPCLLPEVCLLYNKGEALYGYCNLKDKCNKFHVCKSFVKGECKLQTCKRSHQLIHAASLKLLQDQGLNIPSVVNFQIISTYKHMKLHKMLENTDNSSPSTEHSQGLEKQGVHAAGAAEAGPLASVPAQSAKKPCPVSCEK
UniProt Q96BR6: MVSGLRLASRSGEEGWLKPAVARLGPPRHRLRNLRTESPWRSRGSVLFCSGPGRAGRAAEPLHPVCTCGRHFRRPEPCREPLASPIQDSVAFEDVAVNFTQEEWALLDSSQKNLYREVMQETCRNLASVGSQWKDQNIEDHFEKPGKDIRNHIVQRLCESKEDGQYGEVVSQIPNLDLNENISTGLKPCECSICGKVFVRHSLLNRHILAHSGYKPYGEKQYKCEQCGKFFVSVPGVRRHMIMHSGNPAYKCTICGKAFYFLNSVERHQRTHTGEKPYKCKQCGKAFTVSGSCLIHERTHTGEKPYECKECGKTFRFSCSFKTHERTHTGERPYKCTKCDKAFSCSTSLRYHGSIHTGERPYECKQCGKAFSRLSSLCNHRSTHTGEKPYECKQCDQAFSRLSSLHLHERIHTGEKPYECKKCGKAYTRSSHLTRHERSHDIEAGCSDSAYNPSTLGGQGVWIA
UniProt Q86WB0: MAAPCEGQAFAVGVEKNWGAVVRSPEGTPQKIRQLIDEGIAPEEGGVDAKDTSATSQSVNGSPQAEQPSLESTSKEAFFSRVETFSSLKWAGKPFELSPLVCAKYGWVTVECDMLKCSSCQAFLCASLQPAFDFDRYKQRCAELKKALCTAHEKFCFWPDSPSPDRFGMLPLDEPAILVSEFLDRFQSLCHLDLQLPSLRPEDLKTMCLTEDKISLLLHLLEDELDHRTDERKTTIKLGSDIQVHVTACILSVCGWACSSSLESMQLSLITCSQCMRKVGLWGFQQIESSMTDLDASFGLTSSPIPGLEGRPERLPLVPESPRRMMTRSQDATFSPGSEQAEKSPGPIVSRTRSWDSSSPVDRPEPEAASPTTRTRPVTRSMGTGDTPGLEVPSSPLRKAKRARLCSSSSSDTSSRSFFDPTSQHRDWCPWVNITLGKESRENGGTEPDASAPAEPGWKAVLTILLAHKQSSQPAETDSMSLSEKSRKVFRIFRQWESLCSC
UniProt O60315: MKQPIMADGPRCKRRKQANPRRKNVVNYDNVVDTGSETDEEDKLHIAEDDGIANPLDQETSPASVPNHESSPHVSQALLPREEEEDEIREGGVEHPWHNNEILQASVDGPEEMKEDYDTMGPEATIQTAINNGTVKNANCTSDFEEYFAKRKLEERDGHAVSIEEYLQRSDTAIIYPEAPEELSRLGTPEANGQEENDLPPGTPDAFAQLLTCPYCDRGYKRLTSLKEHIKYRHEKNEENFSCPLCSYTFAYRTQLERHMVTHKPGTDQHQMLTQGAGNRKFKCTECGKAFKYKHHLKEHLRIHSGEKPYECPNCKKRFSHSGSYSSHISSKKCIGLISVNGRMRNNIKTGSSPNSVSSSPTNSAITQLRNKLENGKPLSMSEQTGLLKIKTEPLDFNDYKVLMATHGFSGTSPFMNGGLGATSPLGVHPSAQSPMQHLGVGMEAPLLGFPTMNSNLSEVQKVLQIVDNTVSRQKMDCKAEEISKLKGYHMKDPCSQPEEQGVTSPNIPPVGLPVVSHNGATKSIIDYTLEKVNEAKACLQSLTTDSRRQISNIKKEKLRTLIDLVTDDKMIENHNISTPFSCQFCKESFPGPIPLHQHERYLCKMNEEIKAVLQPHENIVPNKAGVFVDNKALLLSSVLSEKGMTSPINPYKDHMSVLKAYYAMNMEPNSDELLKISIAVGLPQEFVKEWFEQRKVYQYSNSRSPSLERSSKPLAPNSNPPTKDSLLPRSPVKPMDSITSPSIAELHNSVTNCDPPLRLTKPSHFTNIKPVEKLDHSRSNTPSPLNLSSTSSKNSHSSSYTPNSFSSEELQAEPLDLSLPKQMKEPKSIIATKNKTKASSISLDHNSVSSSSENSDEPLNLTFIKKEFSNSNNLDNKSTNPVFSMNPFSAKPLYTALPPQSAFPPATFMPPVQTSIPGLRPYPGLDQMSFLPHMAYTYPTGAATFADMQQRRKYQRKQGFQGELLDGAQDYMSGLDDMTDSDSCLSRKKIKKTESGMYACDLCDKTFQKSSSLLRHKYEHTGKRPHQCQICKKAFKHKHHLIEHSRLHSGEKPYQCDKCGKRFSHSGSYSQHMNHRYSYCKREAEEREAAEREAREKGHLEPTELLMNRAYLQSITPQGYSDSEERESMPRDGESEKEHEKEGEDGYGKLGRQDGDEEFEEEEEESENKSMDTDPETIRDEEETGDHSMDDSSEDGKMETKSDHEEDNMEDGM
UniProt Q16600, 120-144: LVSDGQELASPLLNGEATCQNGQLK
UniProt Q92618: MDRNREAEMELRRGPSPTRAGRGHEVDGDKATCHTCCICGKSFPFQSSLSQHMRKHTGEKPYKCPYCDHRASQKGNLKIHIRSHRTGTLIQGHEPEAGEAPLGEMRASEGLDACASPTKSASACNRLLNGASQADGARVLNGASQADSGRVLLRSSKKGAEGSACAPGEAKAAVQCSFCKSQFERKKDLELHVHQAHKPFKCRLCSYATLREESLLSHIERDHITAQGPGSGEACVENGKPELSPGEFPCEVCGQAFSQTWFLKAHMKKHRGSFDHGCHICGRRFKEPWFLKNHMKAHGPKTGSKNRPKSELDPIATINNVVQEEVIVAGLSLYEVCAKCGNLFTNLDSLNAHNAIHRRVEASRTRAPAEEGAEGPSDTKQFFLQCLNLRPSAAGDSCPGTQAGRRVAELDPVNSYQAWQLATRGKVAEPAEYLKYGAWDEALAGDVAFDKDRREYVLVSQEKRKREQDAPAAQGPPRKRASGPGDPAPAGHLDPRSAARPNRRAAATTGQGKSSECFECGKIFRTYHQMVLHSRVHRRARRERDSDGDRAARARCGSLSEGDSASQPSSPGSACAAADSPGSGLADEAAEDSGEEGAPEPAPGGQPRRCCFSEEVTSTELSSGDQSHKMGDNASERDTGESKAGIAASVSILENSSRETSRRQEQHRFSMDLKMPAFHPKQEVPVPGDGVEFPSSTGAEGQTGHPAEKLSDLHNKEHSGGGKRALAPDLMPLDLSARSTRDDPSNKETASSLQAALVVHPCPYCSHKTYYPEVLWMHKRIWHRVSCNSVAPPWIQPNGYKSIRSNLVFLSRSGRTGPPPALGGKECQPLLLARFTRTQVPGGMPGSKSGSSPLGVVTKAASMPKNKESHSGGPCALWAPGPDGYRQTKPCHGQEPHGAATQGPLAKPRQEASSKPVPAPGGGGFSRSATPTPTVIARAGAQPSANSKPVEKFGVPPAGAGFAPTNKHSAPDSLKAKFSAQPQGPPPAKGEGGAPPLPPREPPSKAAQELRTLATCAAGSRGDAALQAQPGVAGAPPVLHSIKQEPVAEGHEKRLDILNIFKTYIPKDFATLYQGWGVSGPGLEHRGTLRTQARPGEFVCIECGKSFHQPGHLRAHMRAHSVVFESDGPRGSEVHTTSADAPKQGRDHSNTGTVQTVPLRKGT

What follows are targets tested with ClCC(=O)N[C@H]1CCCc2ccccc12 (assay: log2 mean competition ratio of IA-DTB cysteine labelling (DMSO/compound) (log2 ratio); higher = stronger cysteine engagement by compound). Details: 50 µM; treatment time: 4 h; cell line lysate: HEK293T.
Experimental: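 IA-DTB competitive cysteine chemoproteomics in HEK293T RIPA lysate. Lysates were treated with compound 29 or 30 at 50 or 200 µM for 4 h, then IA-DTB (500 µM, 1 h), trypsin-digested, NeutrAvidin-enriched and analysed by diaPASEF. Competition ratio = intensity DMSO / intensity compound (n=4 treated, n=64 DMSO); binding: mean log2 CR ≥ 1 and p ≤ 0.05 plus QC filters. Target is the cysteine site.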

| Target | log2 mean competition ratio |
| --- | --- |
| ZC3H7A C98 (UniProt Q8IWR0) | 0.331 |
| ZCCHC17 C52 (UniProt Q9NP64) | 0.0977 |
| ZNF35 C129 | -0.468 |
| ZNF687 C755 (UniProt Q8N1G0) | 0.0492 |
| ZNF709 C431(C571) | 0.0791 |
| ZNF131 C9 (UniProt P52739) | -0.129 |
| ZGPAT C377 (UniProt Q8N5A5) | -0.313 |
| ZC3HAV1L C7 (UniProt Q96H79) | 0.0134 |
| ZNF669 C378 (UniProt Q96BR6) | -0.327 |
| ZNF503 C286 | -0.216 |
| ZHX2 C738 (UniProt Q9Y6X8) | -0.398 |
| ZC3HC1 C5 (UniProt Q86WB0) | -0.162 |
| ZEB2 C140 (UniProt O60315) | -0.164 |
| ZNF407 C1394 (UniProt Q9C0G0) | -0.0382 |
| ZNF292 C1050 (UniProt O60281) | -0.0778 |
| ZNF239 C138 (UniProt Q16600) | -0.587 |
| ZGPAT C180 (UniProt Q8N5A5) | -0.265 |
| ZNF512B C774 (UniProt Q96KM6) | 0.237 |
| ZFPL1 C230 (UniProt O95159) | -0.476 |
| ZNF516 C875 (UniProt Q92618) | 0.256 |

Same assay, conditions: 200 µM; treatment time: 4 h; cell line lysate: HEK293T

| Target | log2 mean competition ratio |
| --- | --- |
| ZC3H7A C98 (UniProt Q8IWR0) | 0.329 |
| ZCCHC17 C52 (UniProt Q9NP64) | 0.0127 |
| ZNF35 C129 | 0.25 |
| ZNF687 C755 (UniProt Q8N1G0) | -0.108 |
| ZNF709 C431(C571) | 0.404 |
| ZNF131 C9 (UniProt P52739) | 0.276 |
| ZGPAT C377 (UniProt Q8N5A5) | 0.125 |
| ZC3HAV1L C7 (UniProt Q96H79) | 0.056 |
| ZNF669 C378 (UniProt Q96BR6) | 0.0832 |
| ZNF503 C286 | 0.293 |
| ZHX2 C738 (UniProt Q9Y6X8) | 0.402 |
| ZC3HC1 C5 (UniProt Q86WB0) | -0.0646 |
| ZEB2 C140 (UniProt O60315) | -0.283 |
| ZNF407 C1394 (UniProt Q9C0G0) | -0.154 |
| ZNF292 C1050 (UniProt O60281) | -0.123 |
| ZNF239 C138 (UniProt Q16600) | -0.445 |
| ZGPAT C180 (UniProt Q8N5A5) | 0.257 |
| ZNF512B C774 (UniProt Q96KM6) | -0.0789 |
| ZFPL1 C230 (UniProt O95159) | -0.123 |
| ZNF516 C875 (UniProt Q92618) | 0.0521 |
